Data reported in the supplement of paper PMC10849652.
Some of the results follow.

Amino acid sequences for entries named in this document (tags omitted). A change or cut given only in a name is not applied to a line headed by its entry.
UniProt Q12873: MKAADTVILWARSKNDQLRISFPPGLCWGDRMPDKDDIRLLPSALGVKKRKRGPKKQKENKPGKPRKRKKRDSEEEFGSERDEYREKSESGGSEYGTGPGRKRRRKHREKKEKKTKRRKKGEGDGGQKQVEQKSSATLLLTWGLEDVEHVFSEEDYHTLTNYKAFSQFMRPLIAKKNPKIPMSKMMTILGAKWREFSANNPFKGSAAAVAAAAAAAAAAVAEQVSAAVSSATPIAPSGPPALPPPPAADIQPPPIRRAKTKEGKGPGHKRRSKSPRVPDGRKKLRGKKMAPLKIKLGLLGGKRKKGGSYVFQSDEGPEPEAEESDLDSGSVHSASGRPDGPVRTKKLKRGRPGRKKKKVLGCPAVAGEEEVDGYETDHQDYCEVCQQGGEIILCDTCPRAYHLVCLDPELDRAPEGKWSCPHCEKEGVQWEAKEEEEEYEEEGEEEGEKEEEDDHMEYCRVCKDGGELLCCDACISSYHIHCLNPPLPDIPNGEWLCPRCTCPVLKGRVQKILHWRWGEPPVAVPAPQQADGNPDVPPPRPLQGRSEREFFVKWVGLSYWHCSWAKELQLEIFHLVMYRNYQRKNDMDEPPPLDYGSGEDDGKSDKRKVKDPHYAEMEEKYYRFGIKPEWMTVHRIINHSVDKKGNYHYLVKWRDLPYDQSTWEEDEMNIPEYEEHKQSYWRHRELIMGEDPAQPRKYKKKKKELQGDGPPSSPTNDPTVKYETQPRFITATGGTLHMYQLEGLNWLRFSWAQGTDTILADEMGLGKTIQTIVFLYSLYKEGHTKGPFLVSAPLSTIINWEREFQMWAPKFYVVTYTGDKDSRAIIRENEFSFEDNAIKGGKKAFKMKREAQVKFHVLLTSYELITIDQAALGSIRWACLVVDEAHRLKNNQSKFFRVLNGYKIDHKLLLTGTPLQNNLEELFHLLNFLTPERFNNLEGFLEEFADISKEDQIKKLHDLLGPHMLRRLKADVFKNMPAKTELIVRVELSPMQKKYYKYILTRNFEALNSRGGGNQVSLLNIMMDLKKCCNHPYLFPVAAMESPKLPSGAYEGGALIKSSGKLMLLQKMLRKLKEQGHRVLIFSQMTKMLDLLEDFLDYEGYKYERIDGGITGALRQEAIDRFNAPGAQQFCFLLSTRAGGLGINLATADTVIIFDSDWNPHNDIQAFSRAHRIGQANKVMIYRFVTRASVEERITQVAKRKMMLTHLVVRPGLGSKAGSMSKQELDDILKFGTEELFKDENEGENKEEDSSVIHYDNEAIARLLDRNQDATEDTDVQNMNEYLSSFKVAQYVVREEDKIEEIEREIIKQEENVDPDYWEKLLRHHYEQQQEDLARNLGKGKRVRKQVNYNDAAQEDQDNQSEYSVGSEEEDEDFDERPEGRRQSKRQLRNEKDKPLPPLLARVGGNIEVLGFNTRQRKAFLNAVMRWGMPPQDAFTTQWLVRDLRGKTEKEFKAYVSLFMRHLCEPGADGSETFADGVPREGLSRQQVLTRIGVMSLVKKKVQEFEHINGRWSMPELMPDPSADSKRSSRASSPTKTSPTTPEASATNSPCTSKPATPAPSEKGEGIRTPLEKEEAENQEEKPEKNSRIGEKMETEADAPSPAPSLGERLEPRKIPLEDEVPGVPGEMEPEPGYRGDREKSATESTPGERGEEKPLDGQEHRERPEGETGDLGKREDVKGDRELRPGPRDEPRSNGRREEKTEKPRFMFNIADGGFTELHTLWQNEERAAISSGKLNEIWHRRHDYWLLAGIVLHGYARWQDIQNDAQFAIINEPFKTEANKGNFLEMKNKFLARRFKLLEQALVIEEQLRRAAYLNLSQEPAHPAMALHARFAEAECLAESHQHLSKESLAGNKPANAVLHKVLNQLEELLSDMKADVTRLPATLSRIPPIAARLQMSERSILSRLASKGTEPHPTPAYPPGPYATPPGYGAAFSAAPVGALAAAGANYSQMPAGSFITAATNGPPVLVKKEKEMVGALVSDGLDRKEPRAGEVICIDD
UniProt O76071: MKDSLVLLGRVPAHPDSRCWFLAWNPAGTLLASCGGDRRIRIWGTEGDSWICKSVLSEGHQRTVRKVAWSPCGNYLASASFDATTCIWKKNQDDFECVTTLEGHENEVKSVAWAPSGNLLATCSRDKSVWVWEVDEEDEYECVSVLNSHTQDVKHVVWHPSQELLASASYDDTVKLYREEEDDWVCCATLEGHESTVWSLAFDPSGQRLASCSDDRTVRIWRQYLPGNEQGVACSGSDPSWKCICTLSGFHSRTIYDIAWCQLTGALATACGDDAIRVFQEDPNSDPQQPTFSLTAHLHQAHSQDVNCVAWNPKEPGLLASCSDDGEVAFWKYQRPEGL
UniProt Q8WUX9: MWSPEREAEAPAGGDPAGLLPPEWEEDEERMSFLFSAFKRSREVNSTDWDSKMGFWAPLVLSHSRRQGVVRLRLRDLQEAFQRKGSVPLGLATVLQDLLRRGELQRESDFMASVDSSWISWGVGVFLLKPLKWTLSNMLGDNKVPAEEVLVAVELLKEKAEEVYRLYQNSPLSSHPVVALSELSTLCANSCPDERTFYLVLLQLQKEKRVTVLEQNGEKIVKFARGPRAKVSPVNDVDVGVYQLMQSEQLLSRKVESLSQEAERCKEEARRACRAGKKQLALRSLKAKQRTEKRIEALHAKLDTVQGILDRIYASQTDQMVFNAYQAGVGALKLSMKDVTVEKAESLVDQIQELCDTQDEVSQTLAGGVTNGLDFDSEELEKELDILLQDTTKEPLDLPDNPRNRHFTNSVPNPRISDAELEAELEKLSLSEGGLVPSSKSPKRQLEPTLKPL
UniProt Q9NX63: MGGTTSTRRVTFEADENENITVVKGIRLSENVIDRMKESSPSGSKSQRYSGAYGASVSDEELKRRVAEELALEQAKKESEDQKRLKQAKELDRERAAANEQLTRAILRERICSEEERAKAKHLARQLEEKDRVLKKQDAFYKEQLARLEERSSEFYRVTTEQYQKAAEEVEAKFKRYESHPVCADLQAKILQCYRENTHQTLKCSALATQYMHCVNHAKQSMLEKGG
UniProt Q96AJ1: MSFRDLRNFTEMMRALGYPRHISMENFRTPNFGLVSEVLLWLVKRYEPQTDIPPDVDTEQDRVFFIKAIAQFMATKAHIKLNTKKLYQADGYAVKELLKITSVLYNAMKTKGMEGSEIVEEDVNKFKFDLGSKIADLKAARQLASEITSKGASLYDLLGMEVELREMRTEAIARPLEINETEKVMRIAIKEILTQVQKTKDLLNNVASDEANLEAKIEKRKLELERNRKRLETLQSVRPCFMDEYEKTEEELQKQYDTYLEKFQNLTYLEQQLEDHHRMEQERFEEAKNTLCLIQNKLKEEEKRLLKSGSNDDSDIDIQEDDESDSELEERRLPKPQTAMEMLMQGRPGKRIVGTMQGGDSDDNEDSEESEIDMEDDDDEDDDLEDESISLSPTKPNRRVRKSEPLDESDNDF
UniProt Q8IYA6: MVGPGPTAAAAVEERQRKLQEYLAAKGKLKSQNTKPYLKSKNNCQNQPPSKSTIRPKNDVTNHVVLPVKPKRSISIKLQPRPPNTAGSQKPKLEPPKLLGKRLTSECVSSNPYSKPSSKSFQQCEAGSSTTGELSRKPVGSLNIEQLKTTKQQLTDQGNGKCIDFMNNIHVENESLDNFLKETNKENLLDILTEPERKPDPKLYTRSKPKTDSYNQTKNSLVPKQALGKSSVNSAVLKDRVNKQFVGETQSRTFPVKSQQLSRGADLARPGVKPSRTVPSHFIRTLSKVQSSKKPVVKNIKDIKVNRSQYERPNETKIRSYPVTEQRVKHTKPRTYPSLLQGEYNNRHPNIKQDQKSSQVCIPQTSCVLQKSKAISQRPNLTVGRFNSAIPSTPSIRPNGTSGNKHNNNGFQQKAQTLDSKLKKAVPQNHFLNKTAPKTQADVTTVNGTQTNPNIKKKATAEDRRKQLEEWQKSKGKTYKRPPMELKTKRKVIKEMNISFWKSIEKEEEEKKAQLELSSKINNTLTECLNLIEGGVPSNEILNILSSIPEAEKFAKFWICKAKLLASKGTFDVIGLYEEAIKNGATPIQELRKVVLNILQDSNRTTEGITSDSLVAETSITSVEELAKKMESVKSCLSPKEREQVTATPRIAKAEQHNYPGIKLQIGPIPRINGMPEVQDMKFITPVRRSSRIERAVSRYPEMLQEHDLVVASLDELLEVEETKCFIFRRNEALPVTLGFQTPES
UniProt P0CG13, whole entry, looked up: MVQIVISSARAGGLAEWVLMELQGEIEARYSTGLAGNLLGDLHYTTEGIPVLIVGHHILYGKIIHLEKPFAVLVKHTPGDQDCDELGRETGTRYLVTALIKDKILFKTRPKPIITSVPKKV
UniProt Q9Y3Y2: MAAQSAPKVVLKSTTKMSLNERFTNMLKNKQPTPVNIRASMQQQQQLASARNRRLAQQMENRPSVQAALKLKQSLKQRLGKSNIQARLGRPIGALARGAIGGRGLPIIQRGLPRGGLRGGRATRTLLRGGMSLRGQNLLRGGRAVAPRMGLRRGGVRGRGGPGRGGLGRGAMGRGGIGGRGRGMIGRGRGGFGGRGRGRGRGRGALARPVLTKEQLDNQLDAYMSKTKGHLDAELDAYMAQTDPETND
UniProt Q9UDT6: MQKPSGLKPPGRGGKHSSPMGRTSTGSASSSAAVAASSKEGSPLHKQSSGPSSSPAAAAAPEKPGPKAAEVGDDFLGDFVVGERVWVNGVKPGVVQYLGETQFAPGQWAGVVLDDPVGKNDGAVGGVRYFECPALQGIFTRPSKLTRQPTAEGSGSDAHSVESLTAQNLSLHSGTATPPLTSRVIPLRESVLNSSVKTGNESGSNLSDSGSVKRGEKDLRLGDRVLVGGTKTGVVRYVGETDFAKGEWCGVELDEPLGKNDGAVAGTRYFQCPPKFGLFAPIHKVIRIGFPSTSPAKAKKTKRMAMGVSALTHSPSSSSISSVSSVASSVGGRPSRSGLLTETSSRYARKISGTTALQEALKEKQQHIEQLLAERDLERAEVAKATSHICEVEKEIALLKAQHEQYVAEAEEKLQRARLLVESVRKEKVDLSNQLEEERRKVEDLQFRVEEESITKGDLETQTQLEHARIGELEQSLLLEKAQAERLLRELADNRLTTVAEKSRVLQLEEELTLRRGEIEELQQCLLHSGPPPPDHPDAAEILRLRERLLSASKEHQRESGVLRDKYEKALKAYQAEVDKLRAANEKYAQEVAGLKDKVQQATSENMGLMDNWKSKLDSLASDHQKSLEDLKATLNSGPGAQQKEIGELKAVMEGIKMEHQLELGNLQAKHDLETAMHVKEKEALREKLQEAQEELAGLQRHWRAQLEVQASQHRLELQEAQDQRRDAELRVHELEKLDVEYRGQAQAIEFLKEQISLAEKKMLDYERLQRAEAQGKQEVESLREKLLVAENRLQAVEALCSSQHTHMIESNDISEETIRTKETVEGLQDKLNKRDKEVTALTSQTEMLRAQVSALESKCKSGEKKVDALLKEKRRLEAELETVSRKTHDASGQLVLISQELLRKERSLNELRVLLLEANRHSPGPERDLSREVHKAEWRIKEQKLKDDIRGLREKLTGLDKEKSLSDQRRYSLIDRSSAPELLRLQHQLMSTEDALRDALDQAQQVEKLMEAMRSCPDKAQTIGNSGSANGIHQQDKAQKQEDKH
UniProt Q8N3C7: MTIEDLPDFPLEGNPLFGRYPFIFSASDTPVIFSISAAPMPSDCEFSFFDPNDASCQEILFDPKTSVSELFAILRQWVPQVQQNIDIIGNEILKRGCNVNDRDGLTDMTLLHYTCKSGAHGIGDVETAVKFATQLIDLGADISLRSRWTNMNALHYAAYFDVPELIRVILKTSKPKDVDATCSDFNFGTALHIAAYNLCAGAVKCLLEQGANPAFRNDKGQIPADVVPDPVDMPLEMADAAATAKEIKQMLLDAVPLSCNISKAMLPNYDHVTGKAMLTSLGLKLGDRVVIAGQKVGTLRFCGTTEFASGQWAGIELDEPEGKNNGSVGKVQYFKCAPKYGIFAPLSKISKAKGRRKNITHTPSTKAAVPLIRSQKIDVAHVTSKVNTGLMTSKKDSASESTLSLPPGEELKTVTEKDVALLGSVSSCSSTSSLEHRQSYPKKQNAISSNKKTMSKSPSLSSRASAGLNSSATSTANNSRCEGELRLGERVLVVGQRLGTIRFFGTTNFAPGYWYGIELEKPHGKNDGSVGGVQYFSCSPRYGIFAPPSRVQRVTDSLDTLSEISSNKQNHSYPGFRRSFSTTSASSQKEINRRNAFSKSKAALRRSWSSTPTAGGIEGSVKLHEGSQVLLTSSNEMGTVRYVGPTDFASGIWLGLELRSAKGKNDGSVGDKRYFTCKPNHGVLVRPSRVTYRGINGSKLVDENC
UniProt Q8IZR5: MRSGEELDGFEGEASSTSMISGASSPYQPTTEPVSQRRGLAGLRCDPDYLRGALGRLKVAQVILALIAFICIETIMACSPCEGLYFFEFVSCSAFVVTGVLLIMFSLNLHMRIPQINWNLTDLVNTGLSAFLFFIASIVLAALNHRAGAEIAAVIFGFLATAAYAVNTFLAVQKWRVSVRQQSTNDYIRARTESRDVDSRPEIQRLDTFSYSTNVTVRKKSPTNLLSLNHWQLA

Legend:
Experiment in all cases: log2 fold change, soluble protein after heating vs DMSO (PISA); higher = thermal stabilisation; K562 lysate, 10 uM; active = over 0.2 and 3.5 SD of the protein, either way, in both replicates (recomputed)
alvocidib = compound: CN1CC[C@H](c2c(O)cc(O)c3c(=O)cc(-c4ccccc4Cl)oc23)[C@H](O)C1 [alvocidib]
Method in brief: (§1)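 A 30 min treatment with 10 μM compound was applied to crude K562 extract at 1 mg/mL protein in PBS pH 7.4 with 1 mM MgCl2. Heating for 3 min spanned 48°C-58°C, after which aliquots were pooled, adjusted to 0.5% NP-40 at 4°C and spun at 21,000xg for 90 min. TMTpro 16plex LC-MS/MS of the supernatant, with channel sums equalised, gave values recorded as log-two fold change in thermal stability against solvent controls, from duplicates.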

Tubastatin A = compound: CN1CCc2c(c3ccccc3n2Cc2ccc(C(=O)NO)cc2)C1 [Tubastatin A]
Method in brief: as §1

[1] = compound: CNC(=O)C1=CC=CC=C1NC2=NC(=NC=C2Cl)NC3=C(C=C(C=C3)N4CCOCC4)OC
Method in brief: as §1

defactinib = compound: CNC(=O)c1ccc(Nc2ncc(C(F)(F)F)c(NCc3nccnc3N(C)S(C)(=O)=O)n2)cc1 [defactinib]
Method in brief: as §1

[2] = compound: CNc1nc(-c2ccc3c(N)n[nH]c3c2)cc(N2C[C@@H](C(=O)NC3CCCCC3)CC[C@H]2C)n1
Method in brief: as §1

encorafenib = compound: COC(=O)N[C@@H](C)CNc1nccc(-c2cn(C(C)C)nc2-c2cc(Cl)cc(NS(C)(=O)=O)c2F)n1 [encorafenib]
Method in brief: as §1

[3] = compound: COC(=O)[C@H](CCSC)NC(=O)C1=C(C=C(C=C1)NC[C@H](CS)N)C2=CC=CC=C2
Method in brief: as §1

alisertib = compound: COc1cc(Nc2ncc3c(n2)-c2ccc(Cl)cc2C(c2c(F)cccc2OC)=NC3)ccc1C(=O)O [alisertib]
Method in brief: as §1

[4] = compound: COc1cc2nc(-c3cc(F)ccc3O)nc(N[C@@H]3CNC[C@H]3C(C)(C)O)c2cc1OC
Method in brief: as §1

gefitinib = compound: COc1cc2ncnc(Nc3ccc(F)c(Cl)c3)c2cc1OCCCN1CCOCC1 [gefitinib]
Method in brief: as §1

Measured: log2 fold change

CHD3 isoform 3 (UniProt Q12873)
inactive: alvocidib 0.003 | Tubastatin A -0.074 | [1] 0.015 | defactinib 0.006 | [2] 0.02 | encorafenib 0.029 | [3] 0.085 | alisertib 0.047 | [4] 0.01 | gefitinib -0.014

CIAO1 (UniProt O76071)
inactive: alvocidib -0.046 | Tubastatin A 0.007 | [1] 0.033 | defactinib -0.006 | [2] 0.037 | encorafenib 0.037 | [3] -0.014 | alisertib 0.024 | [4] 0.02 | gefitinib -0.064

CIAO3 (UniProt Q9H6Q4)
inactive: alvocidib -0.016 | Tubastatin A -0.03 | [1] 0.041 | defactinib 0.01 | [2] 0.071 | encorafenib 0.009 | [3] -0.013 | alisertib -0.023 | [4] -0.016 | gefitinib 0.021

CHRAC1 (UniProt Q9NRG0)
inactive: alvocidib 0.012 | Tubastatin A 0.077 | [1] -0.119 | defactinib -0.011 | [2] -0.045 | encorafenib -0.014 | [3] -0.083 | alisertib 0.01 | [4] 0.014 | gefitinib -0.029

CLTC (UniProt Q00610)
inactive: alvocidib 0.03 | Tubastatin A -0.046 | [1] -0.028 | defactinib 0.031 | [2] -0.03 | encorafenib -0.007 | [3] 0.095 | alisertib 0.018 | [4] 0.004 | gefitinib -0.023

CHMP7 (UniProt Q8WUX9)
inactive: alvocidib -0.012 | Tubastatin A 0.038 | [1] 0.025 | defactinib 0.032 | [2] -0.001 | encorafenib 0.105 | [3] -0.009 | alisertib 0.023 | [4] -0.01 | gefitinib -0.013

CHCHD3 (UniProt Q9NX63)
inactive: alvocidib 0.027 | Tubastatin A 0.029 | [1] -0.033 | defactinib -0.045 | [2] -0.081 | encorafenib -0.007 | [3] -0.104 | alisertib -0.003 | [4] -0.022 | gefitinib 0.009

CLPB isoform 2 (UniProt Q9H078)
inactive: alvocidib 0.065 | Tubastatin A -0.075 | [1] 0.031 | defactinib 0.086 | [2] -0.049 | encorafenib 0.025 | [3] -0.053 | alisertib 0.001 | [4] -0.036 | gefitinib 0.034

CMSS1 (UniProt Q9BQ75)
inactive: alvocidib 0.013 | Tubastatin A -0.036 | [1] -0.02 | defactinib -0.009 | [2] -0.032 | encorafenib 0.015 | [3] 0.024 | alisertib 0.02 | [4] 0.004 | gefitinib 0.025

CKM (UniProt P06732)
inactive: alvocidib -0.126 | Tubastatin A -0.091 | [1] -0.049 | defactinib -0.033 | [2] -0.037 | encorafenib 0.016 | [3] 0.026 | alisertib -0.015 | [4] 0.031 | gefitinib -0.065

CLUH, A0A494C0R8
inactive: alvocidib 0.076 | Tubastatin A -0.08 | [1] -0.015 | defactinib -0.184 | [2] -0.049 | encorafenib -0.089 | [3] 0.054 | alisertib -0.05 | [4] 0.005 | gefitinib 0.138

CLIC4 (UniProt Q9Y696)
inactive: alvocidib -0.043 | Tubastatin A 0.035 | [1] 0.02 | defactinib -0.005 | [2] 0.011 | encorafenib -0.018 | [3] 0 | alisertib -0.016 | [4] 0.014 | gefitinib -0.014

CHD9 (UniProt Q3L8U1)
inactive: alvocidib 0.027 | Tubastatin A 0.055 | [1] -0.064 | defactinib -0.147 | [2] -0.137 | alisertib -0.369 | gefitinib 0.111

CLUAP1 (UniProt Q96AJ1)
inactive: alvocidib 0.013 | Tubastatin A -0.022 | [1] 0.067 | defactinib -0.057 | [2] -0.132 | encorafenib 0.009 | [3] -0.004 | [4] -0.03

CHMP4A (UniProt H0YIN6)
inactive: alvocidib -0.197 | Tubastatin A 0.193 | [2] 0.528 | [4] 0.104

CHST10 (UniProt O43529)
inactive: alvocidib -0.043 | [1] 0.116 | defactinib 0.223

CLN5 (UniProt O75503)
inactive: alvocidib 0.035 | [1] -0.034 | defactinib 0.023 | encorafenib -0.281 | [3] 0.005 | alisertib 0.173 | [4] -0.066 | gefitinib -0.091

CHCHD1 (UniProt Q96BP2)
inactive: alvocidib 0.494 | Tubastatin A 0.046 | [1] 0.028 | defactinib -0.033 | [2] 0.087 | encorafenib -0.018 | [3] -0.042 | alisertib 0.003 | [4] 0.023 | gefitinib 0.228

CLN8 (UniProt Q9UBY8)
inactive: alvocidib -0.158 | Tubastatin A 0.005 | [1] 0.041 | [2] -0.022 | encorafenib 0.038 | [3] -0.056 | alisertib -0.043 | [4] -0.083 | gefitinib 0.16

CIP2A (UniProt Q8TCG1)
active: Tubastatin A -0.294
inactive: alvocidib 0.009 | [1] -0.015 | defactinib 0.003 | [2] -0.074 | encorafenib 0.008 | [3] 0.053 | alisertib -0.004 | [4] -0.014 | gefitinib -0.018

CKAP2L (UniProt Q8IYA6)
inactive: alvocidib 0.041 | Tubastatin A 0.008 | [1] 0.205 | defactinib 0.054 | [2] 0.123 | encorafenib -0.066 | [3] 0.084 | alisertib -0.076 | gefitinib -0.114

CHTF8 (UniProt P0CG13)
inactive: alvocidib 0.159 | Tubastatin A -0.279 | [1] -0.181 | [2] -0.01 | encorafenib -0.058 | [3] -0.076 | alisertib -0.011 | [4] 0.019 | gefitinib -0.035

CLASP2 (UniProt O75122)
inactive: alvocidib -0.139 | Tubastatin A -0.066 | defactinib 0.002 | encorafenib 0.058 | [3] -0.071 | alisertib 0.182 | [4] 0.037 | gefitinib -0.047

CHCHD6 (UniProt Q9BRQ6)
inactive: alvocidib 0.029 | Tubastatin A 0.031 | [1] -0.101 | defactinib -0.055 | [2] 0.208 | encorafenib 0.066 | [3] -0.003 | [4] -0.133

CLIC6 (UniProt Q96NY7)
inactive: alvocidib 0.03 | Tubastatin A -0.089 | [1] 0.032 | defactinib 0.01 | [2] -0.017 | encorafenib 0.02 | [3] 0.049 | [4] 0.043

CHTOP isoform 3 (UniProt Q9Y3Y2)
inactive: alvocidib 0.115 | Tubastatin A 0.011 | [1] -0.122 | defactinib 0.014 | [2] 0.067 | encorafenib -0.029 | [3] 0.14 | [4] -0.004

CLCN2 (UniProt P51788)
inactive: alvocidib -0.03 | Tubastatin A 0.14 | [1] -0.116 | [2] -0.194 | encorafenib 0.049 | [3] -0.055 | [4] 0.076

2 neighbouring records from above, quoted:
CLN5 (UniProt O75503)
inactive: alvocidib 0.035 | [1] -0.034 | defactinib 0.023 | encorafenib -0.281 | [3] 0.005 | alisertib 0.173 | [4] -0.066 | gefitinib -0.091

CHCHD1 (UniProt Q96BP2)
inactive: alvocidib 0.494 | Tubastatin A 0.046 | [1] 0.028 | defactinib -0.033 | [2] 0.087 | encorafenib -0.018 | [3] -0.042 | alisertib 0.003 | [4] 0.023 | gefitinib 0.228

(list continues)

CLIP2 (UniProt Q9UDT6)
inactive: alvocidib 0.145 | [1] 0.124 | [2] -0.068 | encorafenib 0.061 | [3] -0.053 | [4] 0.068

CKLF (UniProt Q9UBR5)
inactive: alvocidib -0.075 | Tubastatin A 0.225 | [2] -0.461 | [4] 0.018

CLIP4 (UniProt Q8N3C7)
inactive: alvocidib -0.109 | Tubastatin A 0.04 | [1] 0.016 | defactinib -0.107 | encorafenib -0.076 | [3] -0.143 | alisertib -0.013 | [4] -0.018 | gefitinib -0.079

CMTM4 (UniProt Q8IZR5)
inactive: alvocidib -0.051 | [1] 0.014 | defactinib -0.109 | [4] 0.063

CHD2 (UniProt O14647)
inactive: alvocidib -0.029 | Tubastatin A -0.079 | defactinib 0.128 | [2] -0.171 | encorafenib 0.07 | [3] 0.081 | alisertib 0.009 | [4] -0.03 | gefitinib -0.021
